These are yes or no findings as the source states them, for the method shown. In cells and extracts the contact can be indirect. Some results given as binding are weak or reduced against the parent protein; the word gives no strength. Sequences can lack the tags named with a protein.

The target in assay [1] is T1, GFP-tagged gigaxonin Kelch 3 deletion mutant (human) (UniProt Q9H2C0).
T1 sequence: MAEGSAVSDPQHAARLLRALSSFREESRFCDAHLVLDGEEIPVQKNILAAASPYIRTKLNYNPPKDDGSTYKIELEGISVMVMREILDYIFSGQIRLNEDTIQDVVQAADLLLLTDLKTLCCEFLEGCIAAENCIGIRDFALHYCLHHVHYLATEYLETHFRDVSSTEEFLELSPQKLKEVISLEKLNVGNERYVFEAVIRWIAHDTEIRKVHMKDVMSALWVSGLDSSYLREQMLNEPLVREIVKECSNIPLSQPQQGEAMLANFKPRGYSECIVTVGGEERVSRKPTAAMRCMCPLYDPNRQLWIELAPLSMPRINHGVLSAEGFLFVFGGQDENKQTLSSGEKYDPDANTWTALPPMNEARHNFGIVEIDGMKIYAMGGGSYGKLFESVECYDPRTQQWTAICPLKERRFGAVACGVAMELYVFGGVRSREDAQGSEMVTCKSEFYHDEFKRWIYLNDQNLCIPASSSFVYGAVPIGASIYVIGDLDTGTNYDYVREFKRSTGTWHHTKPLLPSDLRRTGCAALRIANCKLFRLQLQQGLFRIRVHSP
The assay can be described thus: co-IP; GFP-tagged gigaxonin captured on TurboGFP-Trap magnetic agarose beads from Triton X-100 soluble lysate of transfected cells, overnight at 4°C; 20% of the IP eluted in SDS sample buffer, immunoblot for NUDCD3. In general terms: Immunoblotting shows a protein as a band on a membrane.

The target in assay [2] is T2, GFP-tagged wild type gigaxonin (human) (UniProt Q9H2C0).
T2 sequence: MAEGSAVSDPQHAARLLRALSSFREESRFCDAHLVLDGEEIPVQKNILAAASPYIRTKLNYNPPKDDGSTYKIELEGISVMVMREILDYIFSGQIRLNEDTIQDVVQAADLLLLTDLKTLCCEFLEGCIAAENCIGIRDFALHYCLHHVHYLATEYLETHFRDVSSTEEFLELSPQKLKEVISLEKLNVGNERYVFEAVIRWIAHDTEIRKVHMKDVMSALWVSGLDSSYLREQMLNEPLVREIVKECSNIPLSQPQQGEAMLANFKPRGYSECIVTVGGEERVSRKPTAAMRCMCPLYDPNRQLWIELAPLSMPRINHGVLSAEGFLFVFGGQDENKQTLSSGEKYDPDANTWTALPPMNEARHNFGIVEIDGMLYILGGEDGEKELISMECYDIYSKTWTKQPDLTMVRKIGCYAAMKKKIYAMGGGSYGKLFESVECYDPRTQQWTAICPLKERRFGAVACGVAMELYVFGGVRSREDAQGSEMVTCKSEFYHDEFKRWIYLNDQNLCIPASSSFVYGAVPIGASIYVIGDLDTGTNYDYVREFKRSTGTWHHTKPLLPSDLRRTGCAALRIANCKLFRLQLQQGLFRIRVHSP
The assay is described as above.

B1: NudC domain-containing protein 3 (protein, UniProt Q8IVD9 1-361)
chain: METGAAELYDQALLGILQHVGNVQDFLRVLFGFLYRKTDFYRLLRHPSDRMGFPPGAAQALVLQVFKTFDHMARQDDEKRRQELEEKIRRKEEEEAKTVSAAAAEKEPVPVPVQEIEIDSTTELDGHQEVEKVQPPGPVKEMAHGSQEAEAPGAVAGAAEVPREPPILPRIQEQFQKNPDSYNGAVRENYTWSQDYTDLEVRVPVPKHVVKGKQVSVALSSSSIRVAMLEENGERVLMEGKLTHKINTESSLWSLEPGKCVLVNLSKVGEYWWNAILEGEEPIDIDKINKERSMATVDEEEQAVLDRLTFDYHQKLQGKPQSHELKVHEMLKKGWDAEGSPFRGQRFDPAMFNISPGAVQF
As for B1, the binding result is recorded as “no binding” in assay [1] and “binds” in assay [2].

Values taken from paper doi:10.1101/2025.03.10.641328.
